This passage reports binding results from PMC5065529, “Wnt Signalosome Assembly by DEP Domain Swapping of Dishevelled” (Molecular Cell, 2016).

The chains behind the UniProt entries cited, without tags or fusion partners. Where a name states a change or a piece, a line headed by the entry shows the natural chain unless it says otherwise.
UniProt Q13467: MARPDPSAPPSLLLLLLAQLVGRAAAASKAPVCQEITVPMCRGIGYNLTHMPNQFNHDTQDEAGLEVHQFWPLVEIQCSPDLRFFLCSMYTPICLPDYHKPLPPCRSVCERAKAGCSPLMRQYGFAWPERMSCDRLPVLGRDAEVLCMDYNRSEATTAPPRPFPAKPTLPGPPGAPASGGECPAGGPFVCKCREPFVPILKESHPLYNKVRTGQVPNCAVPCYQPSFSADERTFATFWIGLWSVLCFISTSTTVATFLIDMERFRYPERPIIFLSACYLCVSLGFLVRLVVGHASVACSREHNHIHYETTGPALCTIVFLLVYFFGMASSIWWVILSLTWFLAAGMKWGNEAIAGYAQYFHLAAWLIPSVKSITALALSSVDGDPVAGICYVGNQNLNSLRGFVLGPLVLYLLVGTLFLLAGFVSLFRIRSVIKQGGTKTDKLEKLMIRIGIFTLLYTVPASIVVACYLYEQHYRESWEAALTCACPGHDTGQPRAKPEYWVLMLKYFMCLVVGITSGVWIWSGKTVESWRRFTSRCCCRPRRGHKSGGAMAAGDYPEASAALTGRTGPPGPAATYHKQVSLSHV

These are yes or no findings as the source states them, for the method shown. Binding can be weak; no strength is given. Sequences can lack the tags named with a protein.

The target in experiment [1] is SNAP-FZD5 with a mutation of V432 (human) (UniProt Q13467). Nature of the experiment: FZD-dependent membrane translocation (plasma membrane recruitment) assay, confocal microscopy; GFP-tagged DVL2, DEP or PDZ co-expressed with SNAP-FZD5 (WT or mutant) in transfected cells (HeLa in the legends, HEK293T in the text), fixed and stained with α-SNAP; with or without Wnt3a-conditioned medium for 30 min.

The target of experiment [2] is SNAP-FZD5 with a mutation of I429 (human) (UniProt Q13467). Described as above.

B1: DEP_(414–507)-GFP, minimal DEP domain of DVL2 (domain or fragment, UniProt O14641 414-507)
chain: GRGLSVHTDMASVTKAMAAPESGLEVRDRMWLKITIPNAFLGSDVVDWLYHHVEGFPERREARKYASGLLKAGLIRHTVNKITFSEQCYYVFGD
B1: the binding result in experiment [1] and in experiment [2] was “binds” each time.
